Test [1] concerns the target NAD(P)H: quinone oxidoreductase 1 (NQO1), endogenous (human (endogenous in PLC/PRF/5)) (UniProt P15559). The test can be described thus: co-IP; endogenous proteins; HCC cell lysates precipitated in immunoprecipitation assay buffer at 4 °C overnight with anti-SIRT6, anti-NQO1 or anti-26S antibody, then western blotting.
Test [2] concerns the target Sirtuin 6 (SIRT6), endogenous (human (endogenous in PLC/PRF/5 and Huh-7)) (UniProt Q8N6T7). The test is described as above.
Test [3] concerns the target Myc-DDK-tagged SIRT6 (ectopically expressed) (UniProt Q8N6T7). The test can be described thus: co-IP; cells co-transfected with the constructs (PLC/PRF/5, Huh-7); lysates precipitated at 4 °C overnight with the indicated antibodies, then western blotting; for NQO1 and SIRT6 also after NADH (100 μM) or dicoumarol (400 μM) for 4 h. On the technique in general: A western blot detects proteins with antibodies after separation by electrophoresis.

Amino acid sequences for entries named in this document (tags omitted).
UniProt P15559: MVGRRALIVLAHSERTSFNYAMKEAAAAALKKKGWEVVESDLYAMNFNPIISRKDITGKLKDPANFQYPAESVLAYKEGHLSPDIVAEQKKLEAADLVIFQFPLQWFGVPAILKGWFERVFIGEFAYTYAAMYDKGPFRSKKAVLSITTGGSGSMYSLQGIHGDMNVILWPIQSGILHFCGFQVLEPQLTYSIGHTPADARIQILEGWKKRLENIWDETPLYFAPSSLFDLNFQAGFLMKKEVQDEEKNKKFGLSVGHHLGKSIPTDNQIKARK
UniProt Q8N6T7: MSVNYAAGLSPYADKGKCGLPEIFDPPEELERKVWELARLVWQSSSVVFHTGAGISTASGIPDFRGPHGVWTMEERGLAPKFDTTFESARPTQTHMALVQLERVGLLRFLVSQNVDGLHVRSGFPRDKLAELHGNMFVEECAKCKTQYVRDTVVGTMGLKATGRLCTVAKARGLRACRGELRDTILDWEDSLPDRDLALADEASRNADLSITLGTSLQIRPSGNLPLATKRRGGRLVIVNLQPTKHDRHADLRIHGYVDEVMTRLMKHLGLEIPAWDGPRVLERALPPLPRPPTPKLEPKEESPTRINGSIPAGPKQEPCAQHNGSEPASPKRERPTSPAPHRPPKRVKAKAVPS

No constants are given. Whether binding was seen depends on the method and setting. Binding seen in cells or lysates may run through a third protein. Some results given as binding are weak or reduced against the parent protein; the word gives no strength.

For the substance “Sirtuin 6 (SIRT6), endogenous (from UniProt Q8N6T7 1-355)”, the binding entry in test [1] is “binds”.

For the substance “NAD(P)H: quinone oxidoreductase 1 (NQO1), endogenous (from UniProt P15559 1-274) (enzyme)”, the binding result in test [2] is “binds”.

For the substance “NQO1 (ectopically expressed from pCMV6-NQO1) (from UniProt P15559 1-274) (enzyme)”, the binding entry in test [3] is “binds”.

Source of the values: publication PMC6915971.
